Data published in article PMC8626589.
No constants are given. Whether binding was seen depends on the method and setting. In cells and extracts the contact can be indirect. Binding calls can cover weak binding; strength is not graded here.

How the values were obtained:
[1] = target: T1, Repressor element 1-silencing transcription factor (REST) in H4 astrocytes (proximity ligation assay) (UniProt Q13127); assay: proximity ligation; H4 astrocytes fixed with 4% formaldehyde; primary antibodies for REST, CBP/p300 and/or CREB (1:250, 4 °C overnight); PLA puncta in the nuclear region; also done with DN-REST, said to interfere with the complexing
T1 sequence: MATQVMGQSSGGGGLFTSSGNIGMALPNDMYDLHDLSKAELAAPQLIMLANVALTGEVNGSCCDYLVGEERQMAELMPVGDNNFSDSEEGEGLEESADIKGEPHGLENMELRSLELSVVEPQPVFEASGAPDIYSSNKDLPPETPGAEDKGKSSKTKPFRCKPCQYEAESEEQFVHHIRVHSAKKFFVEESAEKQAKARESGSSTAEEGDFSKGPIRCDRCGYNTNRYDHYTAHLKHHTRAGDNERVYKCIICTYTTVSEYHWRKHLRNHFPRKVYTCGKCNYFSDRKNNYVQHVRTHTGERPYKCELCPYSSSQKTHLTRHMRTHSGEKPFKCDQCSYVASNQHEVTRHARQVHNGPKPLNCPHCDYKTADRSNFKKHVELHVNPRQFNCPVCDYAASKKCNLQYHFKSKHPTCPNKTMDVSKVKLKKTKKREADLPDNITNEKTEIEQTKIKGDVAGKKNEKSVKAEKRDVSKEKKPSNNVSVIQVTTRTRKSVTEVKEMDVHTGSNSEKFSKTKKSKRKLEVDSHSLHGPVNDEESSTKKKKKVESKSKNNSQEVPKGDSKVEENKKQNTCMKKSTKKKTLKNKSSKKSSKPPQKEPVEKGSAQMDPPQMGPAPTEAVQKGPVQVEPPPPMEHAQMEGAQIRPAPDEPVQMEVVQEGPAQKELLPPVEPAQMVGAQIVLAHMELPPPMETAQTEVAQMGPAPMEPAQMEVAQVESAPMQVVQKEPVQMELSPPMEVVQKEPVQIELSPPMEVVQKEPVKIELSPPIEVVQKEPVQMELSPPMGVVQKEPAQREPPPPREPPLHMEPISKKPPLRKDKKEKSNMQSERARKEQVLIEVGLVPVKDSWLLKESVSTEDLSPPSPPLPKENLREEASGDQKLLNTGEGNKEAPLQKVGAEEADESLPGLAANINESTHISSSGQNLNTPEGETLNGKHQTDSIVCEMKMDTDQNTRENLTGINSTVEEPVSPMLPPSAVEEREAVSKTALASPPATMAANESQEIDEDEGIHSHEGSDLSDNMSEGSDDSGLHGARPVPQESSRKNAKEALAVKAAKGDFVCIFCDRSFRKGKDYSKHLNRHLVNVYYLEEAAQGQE

[2] = target: T2, Repressor element 1-silencing transcription factor (REST), overexpressed in H4 astrocytes (UniProt Q13127); assay: co-IP; 400 μg nuclear extract of H4 astrocytes overexpressing REST, 2 μg antibody, protein A/G-agarose overnight at 4 °C, washed with RIPA buffer, extracts treated with DNase I; Western blot; which antibody precipitated is not told
T2 sequence: T1 sequence

binding [1]: binds
binding [2]: binds
Substance: CREB-binding protein (CBP)/p300 (human (endogenous in H4))
